{"sequences": {"note": "The chains behind the UniProt entries cited, without tags or fusion partners. Residues count along the entry.", "UniProt P05362, residues 28-480": "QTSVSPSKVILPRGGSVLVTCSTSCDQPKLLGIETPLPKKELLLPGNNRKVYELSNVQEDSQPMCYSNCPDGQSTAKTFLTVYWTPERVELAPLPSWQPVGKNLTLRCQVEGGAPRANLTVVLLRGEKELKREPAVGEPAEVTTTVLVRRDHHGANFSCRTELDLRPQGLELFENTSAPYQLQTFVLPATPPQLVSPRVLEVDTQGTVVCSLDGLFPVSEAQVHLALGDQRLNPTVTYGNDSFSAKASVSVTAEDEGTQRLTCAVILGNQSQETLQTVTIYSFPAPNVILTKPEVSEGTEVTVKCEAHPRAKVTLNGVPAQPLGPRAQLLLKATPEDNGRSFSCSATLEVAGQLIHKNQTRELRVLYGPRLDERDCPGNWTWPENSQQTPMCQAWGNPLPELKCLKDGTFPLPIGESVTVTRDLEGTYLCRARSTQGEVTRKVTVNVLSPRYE"}, "source": "patent US20130004490A1", "about": "(UNITED STATES OF AMERICA AS REPRESENTED BY THE SECRETARY …, published 2013)", "key": {"[1]": {"molecular_target": "mouse ICAM-1 (immobilized, ELISA format) (mouse) (UniProt P13597)", "experiment": "FITC-labeled γ3 polystyrene carriers on immobilized ICAM-1 (ELISA format), beads bound per area by fluorescence microscopy"}, "[2]": {"molecular_target": "human ICAM-1 (immobilized, ELISA format) (human) (UniProt P05362)", "experiment": "FITC-labeled γ3 polystyrene carriers on immobilized ICAM-1 (ELISA format), beads bound per area by fluorescence microscopy"}}, "note": "No constants are given. Whether binding was seen depends on the method and setting. Some results given as binding are weak or reduced against the parent protein; the word gives no strength.", "data": [{"binder": "NNQKIVNLKEKVAQLEA (also called γ3 peptide; γ3 carriers)", "note": "[ICAM-1 affinity peptide γ3, a 17-mer polypeptide derived from fibrinogen]", "values": [{"measurement": "binding", "setting": "[1]", "result": "binds"}, {"measurement": "binding", "setting": "[2]", "result": "binds"}]}]}
